Measured values from PubChem BioAssay AID1347076 (National Center for Advancing Translational Sciences (NCATS), 2019).
Several values for one entry are separate records, joined by “and”; a condition that tells them apart may be missing. Equal entries are not always repeated. The whole screen tested about 400,000 compounds, of which about 13,000 (3.2%) were called active. Inconclusive results, whose numbers are uncertain, are shown with a selection of clear calls. Calls follow the shape of the dose curve; as a rule, active = well fitted cell-killing curve with a large enough effect; inconclusive = small, poorly fitted or top-dose-only effect, or effect the other way; inactive = flat fitted curve, though single readings scatter. Where the call is inconclusive, the potency comes from a doubtful curve fit.
% is scaled to controls: 0 for no effect and ±100 for the full control effect; potency is read from the fitted curve at half-maximal effect.

Assay: qHTS assay for MDR1-selective chemotherapeutics: Primary screen using the drug-selected MDR subline cells KB-V1; also: nearly all actives have a fitted effect of over 60% in size
Details: KB-V1 MDR cells viability, CellTiter-Glo, 72 h; activity change, negative = cytotoxicity: at 46.1 µM (top of the series)
How it was run: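 Following 72 h at 37 degrees C with compound, KB-V1 cell viability was read by CellTiter-Glo luminescence, medium being phenol-red-free DMEM plus 10% FBS; concentration-response parameters came from normalized, curve-fitted qHTS data.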
With `O=C(O)C1=C[C@H](c2csc3ccccc23)C[C@H](OCc2ccc(CO)cc2)O1` the “activity change, negative = cytotoxicity” value was inactive: -3.7%. For `COC(=O)C1=C(COc2ccc(C=O)cc2OC)NC(=O)NC1c1cc(C)ccc1C` (configuration not stated), the Potency was active: 20.6 µM. With `Cc1cc(C)cc(NC(=O)Cn2nc(N3CCN(c4ccccc4)CC3)ccc2=O)c1` the “activity change, negative = cytotoxicity” value was inactive: 0%. For `Brc1cccc(-c2n[nH]c(-c3ccccc3)n2)c1`, the “activity change, negative = cytotoxicity” value was inactive: -7.46%. For `CC(=O)NC1C(=O)N(C)c2ccc(Br)cc21` (configuration not stated), the “activity change, negative = cytotoxicity” value was inactive: -11.7%. For `CC(=O)Nc1ccc(S(=O)(=O)N2CCN(c3nc(NC4CCCC4)c4ccccc4n3)CC2)cc1`, the Potency was inconclusive: 29.1 µM [cytotoxic, single point]. With `COc1ccc(-n2c(NC(=O)c3ccco3)c(C#N)c3nc4ccccc4nc32)cc1` the Potency was active: 20.6 µM. In the case of `CN(C)P(=O)(Nc1cccc2ccccc12)Nc1cccc2ccccc12`, the Potency is reported as active: 11.6 µM. In the case of `Cc1ccc2cc(CN(CCN3CCOCC3)Cc3nnnn3Cc3ccco3)c(=O)[nH]c2c1C`, the “activity change, negative = cytotoxicity” value is reported as inactive: -23.8%. With `CC(=O)N(CC1CCCO1)C1(C(=O)NC2CCCC2)CCCCC1` (configuration not stated) the Potency was inconclusive: 20.6 µM [cytotoxic, partial curve, poor fit]. For `Cc1ccc(C)c(N2CCN(C(=O)CCS(=O)(=O)c3ccc4c(c3)oc(=O)n4C)CC2)c1`, the Potency was active: 6.51 µM and inconclusive: 2.91 µM [cytotoxic, full curve, poor fit]. With `CCOc1ccc(NC(=O)CSc2nncc(=O)n2N)cc1` the Potency was inconclusive: 5.8 µM [rising, full curve]. For `COc1ccc(CCNC(=O)Cc2ccc(OCc3ccccc3)c(OC)c2[N+](=O)[O-])cc1OCc1ccccc1`, the Potency was active: 2.59 µM. In the case of `N#CCCN(C(=O)COC(=O)CNC(=O)c1ccc(-c2ccccc2)cc1)c1ccc(F)cc1`, the Potency is reported as inconclusive: 29.1 µM [rising, single point]. With `CN(CCCC(=O)Nc1ccncc1)S(=O)(=O)c1ccc(Cl)cc1` the “activity change, negative = cytotoxicity” value was inactive: -3.06%. For `COc1cc(NS(=O)(=O)c2cccc3nsnc23)cc(OC)c1`, the Potency was inconclusive: 18.4 µM [cytotoxic, single point]. In the case of `CCOc1ccc(OCCNC(=O)c2ccc3c(c2)nnn3CC)cc1`, the Potency is reported as active: 23.1 µM. For `N#Cc1ccc(C(=O)OCC(=O)NC(=O)NC2CCCCC2)cc1`, the Potency was inconclusive: 16.4 µM [rising, single point]. With `C[C@H](CO)N1C[C@H](C)[C@@H](CN(C)C(=O)Nc2ccc3c(c2)OCO3)Oc2ccc(NC(=O)Cc3ccccc3)cc2C1=O` the Potency was inconclusive: 29.1 µM [rising, single point]. In the case of `COc1ccc(C(CNC(=O)c2cccc(NC(=O)c3cccs3)c2)N2CCCC2)cc1` (configuration not stated), the Potency is reported as active: 20.6 µM. With `Cn1c(=O)oc2cc(S(=O)(=O)N3CCC(N4CCCCC4)CC3)ccc21` the Potency was inconclusive: 29.1 µM [rising, single point]. For `Cc1cc(C)nc(SC2=CS(=O)(=O)c3ccccc32)n1`, the Potency was inconclusive: 29.1 µM [cytotoxic, single point]. With `CN(C)c1cccc(CNC(=O)c2csc([C@@H]3O[C@H](CO)[C@@H](O)[C@H]3O)n2)c1` the “activity change, negative = cytotoxicity” value was inactive: 6.8%. For `CCS(=O)(=O)n1nc(-c2ccco2)nc1NCc1ccc(C(C)C)cc1`, the Potency was inconclusive: 32.6 µM [cytotoxic, single point]. With `COc1cccc(-n2c(Cc3cc(=O)[nH]c(=O)[nH]3)nnc2SCC(=O)Nc2ccccc2)c1` the Potency was inconclusive: 29.1 µM [rising, single point]. With `COc1cccc(CNC(=O)C2CCN(S(=O)(=O)c3ccc(Br)s3)CC2)c1` the Potency was inconclusive: 14.6 µM [cytotoxic, partial curve, poor fit]. With `CCCCn1c(SCC(=O)Nc2cccc(OC)c2)nc2ccc(N3CCOCC3)cc2c1=O` the Potency was inconclusive: 35.5 µM [cytotoxic, single point]. For `CCc1ccccc1NC(=O)c1nn(-c2ccc(C)cc2)c(=O)c2c1c1ccccc1n2C`, the “activity change, negative = cytotoxicity” value was inactive: 2.58%. For `CCOc1cc(C(C(=O)NCC2CCCO2)N(C(=O)Cn2nnc3ccccc32)c2cccc(OC)c2)ccc1O` (configuration not stated), the “activity change, negative = cytotoxicity” value was inactive: -0.512%. With `CC(=O)C(=Cc1cccc(C#N)c1)C(=O)c1ccccc1` the Potency was inconclusive: 23.1 µM [cytotoxic, partial curve]. In the case of `O=C(Nc1nccs1)c1ccc(S(=O)(=O)NCC2CCCCC2)cc1`, the Potency is reported as inconclusive: 3.26 µM [cytotoxic, full curve, poor fit]. For `CCc1nc2ccc(C(=O)Nc3cccc(OCC(=O)N(C)C)c3)cn2c1N(C)C(=O)c1cccc(OC)c1`, the “activity change, negative = cytotoxicity” value was inactive: 5.31%. With `O=C(CN1C(=O)NC2(CCCCC2)C1=O)Nc1ccc2c(c1)OCCCO2` the Potency was inconclusive: 29.1 µM [rising, single point]. In the case of `COc1ccc(Nc2nc(C(C)(C)C)nc3c2nnn3Cc2ccccc2Cl)cc1OC`, the Potency is reported as inconclusive: 4.11 µM [cytotoxic, full curve]. In the case of `O=C1CC[C@H](OCc2ccccc2)CCN1[C@H](CSc1ccccc1)Cc1ccccc1`, the Potency is reported as inconclusive: 11.6 µM [rising, partial curve]. For `CC(=O)Nc1ccc(NC(=O)C(NC(=O)C2CCC(C)CC2)C(C)C)cc1` (configuration not stated), the Potency was inconclusive: 29.1 µM [rising, single point]. For `CSC1(SC2=NCCN2)SC2(NCCN2)S1`, the Potency was inconclusive: 4.61 µM [cytotoxic, full curve, poor fit]. For `CCCCCc1ccc(-c2ccc(=O)[nH]n2)cc1`, the Potency was active: 5.17 µM. For `Cc1ccc(S(=O)(=O)N(CC(O)CN2CCCCC2)c2cccc([N+](=O)[O-])c2)cc1` (configuration not stated), the Potency was inconclusive: 7.31 µM [cytotoxic, partial curve, poor fit]. In the case of `O=C(NC1CCCCC1)N(Cc1ccccc1)Cc1ccco1`, the Potency is reported as inconclusive: 4.11 µM [cytotoxic, partial curve, poor fit]. For `COc1ccc(S(=O)(=O)Nc2ccccc2-c2nc3ccccc3[nH]c2=O)cc1`, the Potency was inconclusive: 16.4 µM [cytotoxic, single point]. In the case of `O=C(CN1C(=O)C2C3C=CC(C3)C2C1=O)Nc1cccc(S(=O)(=O)N2CCCC2)c1` (configuration not stated), the Potency is reported as inconclusive: 9.2 µM [cytotoxic, partial curve].
